Laboratory results reported in article PMC10834586.
Results are given in words; binding and its absence hold for the method and conditions named. In cells and extracts the contact can be indirect. Some binding calls cover weakened binding; strength is not graded here.

The chains behind the UniProt entries cited, without tags or fusion partners. Where a name states a change or a piece, a line headed by the entry shows the natural chain unless it says otherwise. A line that says so, or that is headed by a name, gives the form on record, which may keep a tag or linker. Residues count along the entry.
UniProt Q16665: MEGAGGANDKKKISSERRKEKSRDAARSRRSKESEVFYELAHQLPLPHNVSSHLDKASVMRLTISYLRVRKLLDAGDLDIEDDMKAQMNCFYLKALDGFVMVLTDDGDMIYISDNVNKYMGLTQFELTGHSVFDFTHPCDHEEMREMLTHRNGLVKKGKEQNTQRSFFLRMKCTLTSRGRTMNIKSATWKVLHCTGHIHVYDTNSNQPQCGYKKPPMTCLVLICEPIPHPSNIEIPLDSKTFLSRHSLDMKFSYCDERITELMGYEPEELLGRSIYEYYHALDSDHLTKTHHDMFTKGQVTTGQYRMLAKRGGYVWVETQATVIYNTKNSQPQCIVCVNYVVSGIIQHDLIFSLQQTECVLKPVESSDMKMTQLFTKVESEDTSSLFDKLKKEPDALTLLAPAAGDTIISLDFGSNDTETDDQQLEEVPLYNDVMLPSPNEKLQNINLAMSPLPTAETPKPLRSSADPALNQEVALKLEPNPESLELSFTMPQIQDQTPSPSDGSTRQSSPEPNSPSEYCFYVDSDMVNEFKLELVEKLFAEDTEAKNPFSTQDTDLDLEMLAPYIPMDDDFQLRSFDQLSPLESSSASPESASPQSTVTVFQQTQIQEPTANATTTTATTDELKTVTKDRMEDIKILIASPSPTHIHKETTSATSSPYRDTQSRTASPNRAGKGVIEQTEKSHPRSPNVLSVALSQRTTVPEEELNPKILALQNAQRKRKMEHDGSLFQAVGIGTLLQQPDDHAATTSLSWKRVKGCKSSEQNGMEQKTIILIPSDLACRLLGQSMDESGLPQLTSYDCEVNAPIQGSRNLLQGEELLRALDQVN
GFP-HIF-1α SD-SA (Q16665, form named): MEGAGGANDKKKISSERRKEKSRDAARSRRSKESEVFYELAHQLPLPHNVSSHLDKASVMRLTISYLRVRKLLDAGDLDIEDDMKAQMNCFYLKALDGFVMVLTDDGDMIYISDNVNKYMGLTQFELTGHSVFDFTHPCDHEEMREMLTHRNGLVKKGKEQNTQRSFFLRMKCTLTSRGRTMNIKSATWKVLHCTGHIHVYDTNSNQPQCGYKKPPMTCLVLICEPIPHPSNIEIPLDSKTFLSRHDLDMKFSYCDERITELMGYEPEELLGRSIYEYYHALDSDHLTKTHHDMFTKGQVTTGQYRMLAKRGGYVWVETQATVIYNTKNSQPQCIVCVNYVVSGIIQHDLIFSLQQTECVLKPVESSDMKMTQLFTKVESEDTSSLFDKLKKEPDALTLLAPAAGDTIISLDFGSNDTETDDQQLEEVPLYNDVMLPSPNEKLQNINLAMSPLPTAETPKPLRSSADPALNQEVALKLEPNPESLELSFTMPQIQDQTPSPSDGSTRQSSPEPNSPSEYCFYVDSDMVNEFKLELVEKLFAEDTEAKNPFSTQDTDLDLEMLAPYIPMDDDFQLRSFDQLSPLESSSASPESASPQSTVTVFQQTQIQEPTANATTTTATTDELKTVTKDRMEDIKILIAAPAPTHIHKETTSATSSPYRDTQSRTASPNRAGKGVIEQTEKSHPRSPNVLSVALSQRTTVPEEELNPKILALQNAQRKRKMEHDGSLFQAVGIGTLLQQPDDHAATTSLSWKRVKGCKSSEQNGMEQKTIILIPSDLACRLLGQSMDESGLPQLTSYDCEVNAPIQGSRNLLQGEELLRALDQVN
GFP-HIF-1α S641/643A (Q16665, form named): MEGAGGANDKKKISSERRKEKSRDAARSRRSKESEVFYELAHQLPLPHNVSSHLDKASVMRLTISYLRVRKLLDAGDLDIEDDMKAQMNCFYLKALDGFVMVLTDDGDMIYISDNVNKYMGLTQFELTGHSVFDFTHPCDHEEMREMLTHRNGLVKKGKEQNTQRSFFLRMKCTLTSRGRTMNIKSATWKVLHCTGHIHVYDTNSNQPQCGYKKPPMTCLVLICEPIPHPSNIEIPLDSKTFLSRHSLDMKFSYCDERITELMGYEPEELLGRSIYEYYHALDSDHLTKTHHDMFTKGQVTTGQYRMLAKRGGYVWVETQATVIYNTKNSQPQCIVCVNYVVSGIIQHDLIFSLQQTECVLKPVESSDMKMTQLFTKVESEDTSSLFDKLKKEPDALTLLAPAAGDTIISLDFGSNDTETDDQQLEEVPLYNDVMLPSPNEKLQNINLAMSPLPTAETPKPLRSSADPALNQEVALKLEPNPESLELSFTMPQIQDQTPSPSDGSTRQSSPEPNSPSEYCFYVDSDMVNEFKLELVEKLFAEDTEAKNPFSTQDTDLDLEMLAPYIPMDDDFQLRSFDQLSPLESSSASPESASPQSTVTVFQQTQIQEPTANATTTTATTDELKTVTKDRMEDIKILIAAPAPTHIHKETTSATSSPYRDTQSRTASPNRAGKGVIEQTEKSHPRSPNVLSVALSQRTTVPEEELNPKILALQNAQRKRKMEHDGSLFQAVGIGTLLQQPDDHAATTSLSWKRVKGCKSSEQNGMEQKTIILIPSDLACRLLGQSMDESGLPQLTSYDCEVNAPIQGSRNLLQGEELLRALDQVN
UniProt P38646, residues 47-679: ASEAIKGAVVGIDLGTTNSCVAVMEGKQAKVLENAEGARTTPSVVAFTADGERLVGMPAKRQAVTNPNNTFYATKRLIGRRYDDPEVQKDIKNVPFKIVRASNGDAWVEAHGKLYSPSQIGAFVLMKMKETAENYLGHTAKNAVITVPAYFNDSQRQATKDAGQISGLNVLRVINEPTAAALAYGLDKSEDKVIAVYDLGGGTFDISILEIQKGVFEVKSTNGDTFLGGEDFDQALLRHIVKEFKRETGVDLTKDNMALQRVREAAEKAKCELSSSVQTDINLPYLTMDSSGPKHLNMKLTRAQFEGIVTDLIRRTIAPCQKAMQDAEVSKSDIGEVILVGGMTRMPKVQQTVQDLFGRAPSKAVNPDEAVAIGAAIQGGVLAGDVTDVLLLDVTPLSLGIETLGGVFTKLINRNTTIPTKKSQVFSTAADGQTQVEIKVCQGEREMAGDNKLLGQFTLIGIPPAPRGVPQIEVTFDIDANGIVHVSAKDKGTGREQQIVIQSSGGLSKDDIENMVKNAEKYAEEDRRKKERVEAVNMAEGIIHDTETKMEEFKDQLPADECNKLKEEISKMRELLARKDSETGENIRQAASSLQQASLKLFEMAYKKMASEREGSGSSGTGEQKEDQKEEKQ

Columns and labels:
GFP-HIF-1α SD-SA = GFP-HIF-1α SD-SA (UniProt Q16665); assay: co-IP; anti-GFP immunoprecipitation from lysates of transfected HeLa HIF1A−/− cells grown under hypoxia (1% O2); HNMT buffer, 16 h at 4 °C; immunoblot
GFP-HIF-1α S641/643A = GFP-HIF-1α S641/643A (UniProt Q16665); assay: as above

## mortalin (from UniProt P38646 47-679)
GFP-HIF-1α SD-SA
  binding: binds
GFP-HIF-1α S641/643A
  binding: binds
